According to patent US4073917A, “Local anesthetics tertiary aminoalkoxyphenyl ethers” (priority 1974, dated 1978):

Test system: back of the guinea-pig (intact skin)
Assay: surface anesthesia by epicutaneous application to intact skin, pricking test as in the intracutaneous wheal test
Assay type: in vivo, guinea-pig (Dunkin-Hartley, males)
Excerpt: A. Guinea-pigs (Dunkin-Hartley, males, 4-6 weeks of age 350±50 g) were shaved and depilated. A gauze folded twice (23 mm diameter) was put into the test solution and thereafter in a plastic cup (outer diameter 26 mm, inner diameter 24 mm, inner height 4 mm). The cup with the gauze saturated with test solution was attached to the back of the animal as an occlusive dressing fastened with plaster (25 mm width) wound around the body). […] After the end of the contact time the site of contact was washed and marked with a fatty chalk. With a sharp instrument (e.g. cannula or a pair of tweezers) the place was pricked six times and registering was made as in the intracutaneous wheal test (Bulbring-Wajda: J. Pharmacol., 1945, 85, p 78) on the back of the guinea-pig, i.e. by registering the presence or absence of a characteristic ripple of the skin of the back of the animal. Every pricking which gives no skin contraction was counted. The test was repeated at regular intervals of 5 min, during an interval of 30 min from the end of the application period. The test gives an indication of onset time, depth and duration of block. The percentage block during the 25 min testing period was used as an index for efficiency. The test solution consisted of the test compound (base) dissolved to 10% (w/v, g/ml) in a mixture of isopropanol (65%: v/v), glycerol (25%: v/v) and water (10%: v/v). […]

CCN(CC)CC(=O)Nc1c(C)cccc1C [Lidocaine, diethylaminoacet-2,6-xylidide]
surface anesthetic effect (in words): much weaker than that of the new compounds
